Experiment: Mass balance studies after 48-h skin permeation of MTG in solvents
Assay type: in vitro ADME, porcine
Conditions: MTG in PG, no receptor medium
Procedure: The in vitro permeation study was performed in triplicate using Franz diffusion cell apparatus with a diffusion area of ~ 0.8 cm^2 and a receptor volume of ~ 3 mL. The porcine skin was thawed at room temperature and cut into an appropriate size before mounting on the Franz diffusion cells. The receptor compartment was filled with PBS containing 0.02%w/v of sodium azide and a selected antioxidant. The Franz diffusion cells were placed into a water bath to maintain the skin temperature at 32 ± 0.5 °C. […] After 48-h permeation studies, the mass balance studies were performed.
Subsequently, the surface of the skin was washed twice with 500 μL of methanol before adding to the same Eppendorf tube containing the cotton buds. The skin was removed from the dissembled Franz diffusion cell and cut into pieces before placing in another Eppendorf tube containing 1 mL of methanol. All samples were vortexed and analysed using HPLC (Sect. HPLC analysis).
Samples were analysed using Shimadzu liquid chromatographic system (Kyoto, Japan) with SPD-20A UV–vis detector set at 254 nm. A reverse phase ZORBAX Eclipse Plus C18 column (Agilent Technologies, 150 × 4.6 mm ID × 3.5 μm) coupled with a C18 guard column (Phenomenex SecurityGuard™, 4 × 3.0 mm ID × 5 μm) was employed as the stationary phase. […]

## CC[C@@H]1CN2CCc3c([nH]c4cccc(OC)c34)[C@@H]2C[C@@H]1/C(=C\OC)C(=O)OC [MTG, mitragynine]
Immediately post-application
  MTG in the skin (validation of surface wiping procedure): no detection
Swabbed immediately post-application, n = 3
  Percentage recovery of MTG in skin surface washes (validation of surface wiping procedure): 100.97 ± 0.07%

Reference: PMC12507957 (Drug Delivery and Translational Research, 2025)
